In US20120318262A1 (priority 2011, published 2012):

How the values were obtained:
[1] = test system: C57Bl/6 mice; settings: male, mouse, in vivo
Source text: FIGS. 5A-D. Mouse MI model. Representative mouse EKG tracings pre (FIG. 5A) and post (FIG. 5B) coronary artery ligation. […] Arrows mark lateral and posterior left ventricle (LV). LVIDD, LVIDS=LV internal diameter at systole and […], respectively. RV=right ventricle. […] Cardiac dimensions were obtained from 2-D guided M-mode images (100 frames/sec) and were read blinded using short axis and a parasternal long-axis views with the leading edge method. All echo measurements were averaged over 3 consecutive beats on unsedated mice at 7 and 30 days after infarction. Statistical significance assessed by the Wilcoxon rank sum test.
Ventricular remodeling and cardiac functional parameters will be assessed by echo.
Mammalian cardiomyocytes irreversibly withdraw from the cell cycle soon after birth and undergo terminal differentiation. […] Therefore, cardiac injury causes permanent myocardial loss and cardiac dysfunction. […] Proliferation was assessed by immunostaining for Ki-67.

[2] = test system: mice; settings: levels high enough to achieve Wnt-inhibitory plasma levels

SMILES: Cc1cc(/C=C/c2ccc3cc(N(C)C)ccc3[n+]2C)c(C)n1-c1ccccc1 [pyrvinium, 6-(Dimethylamino)-2-[2-(2,5-dimethyl-1-phenyl-1H-pyrrol-3-yl)ethenyl]-1-methylquinolinium]
- mice with lethal toxicity, died within the first 24 hours [1]: 15
- toxicity after IV or IP injection [2]: death within 24-48 hours in most mice
